# Reference: the supplement of paper PMC12067093, “Discovery and optimisation of a covalent ligand for TRIM25 and its application to targeted protein ubiquitination” (Chemical Science, 2025)
# Amino acid sequences for entries named in this document (tags omitted). A change or cut given only in a name is not applied to a line headed by its entry.
# UniProt Q96KG9: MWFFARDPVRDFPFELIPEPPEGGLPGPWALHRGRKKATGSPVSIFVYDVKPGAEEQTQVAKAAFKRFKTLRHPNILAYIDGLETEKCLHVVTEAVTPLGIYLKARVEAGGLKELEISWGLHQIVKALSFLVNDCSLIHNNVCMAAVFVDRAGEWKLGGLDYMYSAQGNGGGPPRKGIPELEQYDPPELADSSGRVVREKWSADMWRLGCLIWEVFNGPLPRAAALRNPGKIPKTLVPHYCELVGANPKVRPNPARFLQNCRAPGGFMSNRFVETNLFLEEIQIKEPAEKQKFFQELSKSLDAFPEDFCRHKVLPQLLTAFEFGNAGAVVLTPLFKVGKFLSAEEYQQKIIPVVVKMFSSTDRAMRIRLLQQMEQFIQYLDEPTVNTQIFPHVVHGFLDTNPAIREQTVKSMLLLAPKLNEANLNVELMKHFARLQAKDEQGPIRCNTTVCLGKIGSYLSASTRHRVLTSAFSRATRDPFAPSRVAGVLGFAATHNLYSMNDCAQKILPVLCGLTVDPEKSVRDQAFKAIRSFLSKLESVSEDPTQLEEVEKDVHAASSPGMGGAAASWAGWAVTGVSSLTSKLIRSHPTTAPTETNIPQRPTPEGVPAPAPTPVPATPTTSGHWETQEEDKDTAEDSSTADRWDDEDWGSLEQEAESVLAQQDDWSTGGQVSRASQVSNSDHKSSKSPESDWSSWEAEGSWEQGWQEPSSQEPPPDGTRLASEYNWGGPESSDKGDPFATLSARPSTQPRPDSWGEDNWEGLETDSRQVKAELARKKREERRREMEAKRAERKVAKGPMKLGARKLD
# UniProt Q9BY12: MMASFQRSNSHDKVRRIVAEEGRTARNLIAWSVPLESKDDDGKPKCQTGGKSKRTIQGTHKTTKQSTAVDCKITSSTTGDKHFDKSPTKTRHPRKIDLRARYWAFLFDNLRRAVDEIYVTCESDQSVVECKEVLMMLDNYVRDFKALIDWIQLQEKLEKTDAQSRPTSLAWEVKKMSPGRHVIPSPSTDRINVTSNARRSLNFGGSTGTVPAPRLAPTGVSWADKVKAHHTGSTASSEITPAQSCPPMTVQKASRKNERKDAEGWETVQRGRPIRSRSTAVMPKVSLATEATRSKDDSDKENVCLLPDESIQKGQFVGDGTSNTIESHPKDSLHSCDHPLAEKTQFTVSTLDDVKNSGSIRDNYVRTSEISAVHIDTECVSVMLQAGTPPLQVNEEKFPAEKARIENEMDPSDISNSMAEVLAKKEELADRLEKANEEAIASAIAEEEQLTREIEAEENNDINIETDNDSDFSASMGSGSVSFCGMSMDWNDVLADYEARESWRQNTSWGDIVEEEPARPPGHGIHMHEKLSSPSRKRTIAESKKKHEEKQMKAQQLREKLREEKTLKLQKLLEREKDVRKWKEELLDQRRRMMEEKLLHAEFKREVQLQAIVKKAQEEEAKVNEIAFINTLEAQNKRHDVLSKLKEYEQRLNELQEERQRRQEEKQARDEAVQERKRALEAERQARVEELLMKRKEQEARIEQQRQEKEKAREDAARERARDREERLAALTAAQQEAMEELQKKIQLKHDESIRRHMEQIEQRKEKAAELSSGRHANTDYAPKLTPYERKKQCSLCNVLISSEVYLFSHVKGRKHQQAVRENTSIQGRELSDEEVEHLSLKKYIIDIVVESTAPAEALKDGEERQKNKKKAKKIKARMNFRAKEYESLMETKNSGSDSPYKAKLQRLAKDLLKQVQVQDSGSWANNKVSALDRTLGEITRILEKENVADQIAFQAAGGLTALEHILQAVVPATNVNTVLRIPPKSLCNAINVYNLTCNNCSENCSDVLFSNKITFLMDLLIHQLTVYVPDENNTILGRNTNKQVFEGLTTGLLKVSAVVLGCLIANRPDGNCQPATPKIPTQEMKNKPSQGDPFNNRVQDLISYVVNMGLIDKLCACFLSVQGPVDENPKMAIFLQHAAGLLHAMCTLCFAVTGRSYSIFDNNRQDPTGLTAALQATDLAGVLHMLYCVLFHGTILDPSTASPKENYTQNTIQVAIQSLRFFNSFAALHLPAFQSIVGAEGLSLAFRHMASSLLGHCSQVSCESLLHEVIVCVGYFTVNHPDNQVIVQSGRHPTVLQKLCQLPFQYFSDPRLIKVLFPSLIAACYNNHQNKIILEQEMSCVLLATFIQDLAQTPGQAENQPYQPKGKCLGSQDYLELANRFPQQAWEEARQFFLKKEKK
# UniProt Q15437: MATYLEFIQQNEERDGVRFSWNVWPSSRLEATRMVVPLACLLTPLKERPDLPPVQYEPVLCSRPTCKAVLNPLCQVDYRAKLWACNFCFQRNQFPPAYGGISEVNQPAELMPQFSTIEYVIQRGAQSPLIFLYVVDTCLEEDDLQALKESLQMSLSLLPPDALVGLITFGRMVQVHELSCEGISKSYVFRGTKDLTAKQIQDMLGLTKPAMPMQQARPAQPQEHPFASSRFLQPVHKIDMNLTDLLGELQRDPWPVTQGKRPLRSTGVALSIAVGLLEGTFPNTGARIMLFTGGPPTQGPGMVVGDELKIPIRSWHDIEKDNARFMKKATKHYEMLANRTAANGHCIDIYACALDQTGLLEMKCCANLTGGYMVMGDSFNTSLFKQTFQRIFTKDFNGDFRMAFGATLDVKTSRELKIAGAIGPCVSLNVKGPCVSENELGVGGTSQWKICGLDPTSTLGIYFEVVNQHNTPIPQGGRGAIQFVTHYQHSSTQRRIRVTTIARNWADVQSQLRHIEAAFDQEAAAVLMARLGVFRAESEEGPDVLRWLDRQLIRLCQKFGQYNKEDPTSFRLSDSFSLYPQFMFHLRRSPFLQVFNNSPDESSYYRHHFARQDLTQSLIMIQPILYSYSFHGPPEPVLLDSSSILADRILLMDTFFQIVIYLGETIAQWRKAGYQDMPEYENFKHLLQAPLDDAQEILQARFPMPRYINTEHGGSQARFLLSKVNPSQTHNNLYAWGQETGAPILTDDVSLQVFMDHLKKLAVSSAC
# UniProt O94855: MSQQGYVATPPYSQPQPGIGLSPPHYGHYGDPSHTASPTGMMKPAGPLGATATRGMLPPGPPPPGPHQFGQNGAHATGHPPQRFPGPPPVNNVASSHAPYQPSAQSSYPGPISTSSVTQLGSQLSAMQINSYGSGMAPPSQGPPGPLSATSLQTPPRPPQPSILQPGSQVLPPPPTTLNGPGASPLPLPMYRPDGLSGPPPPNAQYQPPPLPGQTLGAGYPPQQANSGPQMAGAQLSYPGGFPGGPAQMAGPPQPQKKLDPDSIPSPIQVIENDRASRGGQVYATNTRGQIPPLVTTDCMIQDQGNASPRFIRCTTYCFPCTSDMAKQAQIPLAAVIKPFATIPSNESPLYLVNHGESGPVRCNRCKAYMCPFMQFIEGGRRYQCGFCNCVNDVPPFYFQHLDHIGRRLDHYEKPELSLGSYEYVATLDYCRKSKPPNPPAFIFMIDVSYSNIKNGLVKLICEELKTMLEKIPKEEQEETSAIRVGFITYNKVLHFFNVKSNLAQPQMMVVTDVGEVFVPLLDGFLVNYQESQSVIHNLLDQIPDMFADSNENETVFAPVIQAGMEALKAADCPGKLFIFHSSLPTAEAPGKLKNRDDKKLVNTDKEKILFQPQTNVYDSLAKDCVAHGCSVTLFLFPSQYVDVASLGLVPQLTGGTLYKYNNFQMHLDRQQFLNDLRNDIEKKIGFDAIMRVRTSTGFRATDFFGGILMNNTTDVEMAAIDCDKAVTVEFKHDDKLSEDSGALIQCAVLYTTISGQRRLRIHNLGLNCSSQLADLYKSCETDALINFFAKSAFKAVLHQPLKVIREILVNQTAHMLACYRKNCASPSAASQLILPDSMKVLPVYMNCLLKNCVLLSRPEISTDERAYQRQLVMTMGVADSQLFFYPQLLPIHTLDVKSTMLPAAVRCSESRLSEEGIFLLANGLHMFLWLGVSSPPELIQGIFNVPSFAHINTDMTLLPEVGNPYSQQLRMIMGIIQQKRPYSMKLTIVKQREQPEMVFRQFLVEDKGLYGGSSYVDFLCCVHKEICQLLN
# UniProt Q15020: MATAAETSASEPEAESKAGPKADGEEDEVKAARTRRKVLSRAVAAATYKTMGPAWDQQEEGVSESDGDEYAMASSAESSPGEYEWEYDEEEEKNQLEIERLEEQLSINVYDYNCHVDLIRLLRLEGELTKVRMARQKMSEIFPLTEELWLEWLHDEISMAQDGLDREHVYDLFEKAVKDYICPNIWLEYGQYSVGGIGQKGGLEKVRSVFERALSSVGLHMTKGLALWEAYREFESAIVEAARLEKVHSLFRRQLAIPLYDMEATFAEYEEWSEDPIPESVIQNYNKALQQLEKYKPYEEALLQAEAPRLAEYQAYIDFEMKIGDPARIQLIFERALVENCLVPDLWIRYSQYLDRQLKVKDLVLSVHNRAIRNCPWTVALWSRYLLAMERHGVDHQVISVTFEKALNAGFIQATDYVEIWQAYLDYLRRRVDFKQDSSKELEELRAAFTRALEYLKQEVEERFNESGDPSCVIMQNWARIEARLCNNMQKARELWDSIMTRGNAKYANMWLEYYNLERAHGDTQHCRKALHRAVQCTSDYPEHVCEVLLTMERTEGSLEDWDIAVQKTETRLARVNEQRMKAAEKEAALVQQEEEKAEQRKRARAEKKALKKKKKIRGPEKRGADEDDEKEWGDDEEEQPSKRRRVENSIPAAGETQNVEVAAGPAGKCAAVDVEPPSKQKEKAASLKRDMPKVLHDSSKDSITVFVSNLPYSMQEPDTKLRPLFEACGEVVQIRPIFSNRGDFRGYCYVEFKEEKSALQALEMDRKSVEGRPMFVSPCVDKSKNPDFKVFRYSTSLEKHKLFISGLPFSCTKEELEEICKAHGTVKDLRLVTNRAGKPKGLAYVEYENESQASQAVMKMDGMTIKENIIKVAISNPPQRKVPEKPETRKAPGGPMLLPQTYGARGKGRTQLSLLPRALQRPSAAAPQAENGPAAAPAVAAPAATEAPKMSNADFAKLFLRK
# UniProt Q9H3S1: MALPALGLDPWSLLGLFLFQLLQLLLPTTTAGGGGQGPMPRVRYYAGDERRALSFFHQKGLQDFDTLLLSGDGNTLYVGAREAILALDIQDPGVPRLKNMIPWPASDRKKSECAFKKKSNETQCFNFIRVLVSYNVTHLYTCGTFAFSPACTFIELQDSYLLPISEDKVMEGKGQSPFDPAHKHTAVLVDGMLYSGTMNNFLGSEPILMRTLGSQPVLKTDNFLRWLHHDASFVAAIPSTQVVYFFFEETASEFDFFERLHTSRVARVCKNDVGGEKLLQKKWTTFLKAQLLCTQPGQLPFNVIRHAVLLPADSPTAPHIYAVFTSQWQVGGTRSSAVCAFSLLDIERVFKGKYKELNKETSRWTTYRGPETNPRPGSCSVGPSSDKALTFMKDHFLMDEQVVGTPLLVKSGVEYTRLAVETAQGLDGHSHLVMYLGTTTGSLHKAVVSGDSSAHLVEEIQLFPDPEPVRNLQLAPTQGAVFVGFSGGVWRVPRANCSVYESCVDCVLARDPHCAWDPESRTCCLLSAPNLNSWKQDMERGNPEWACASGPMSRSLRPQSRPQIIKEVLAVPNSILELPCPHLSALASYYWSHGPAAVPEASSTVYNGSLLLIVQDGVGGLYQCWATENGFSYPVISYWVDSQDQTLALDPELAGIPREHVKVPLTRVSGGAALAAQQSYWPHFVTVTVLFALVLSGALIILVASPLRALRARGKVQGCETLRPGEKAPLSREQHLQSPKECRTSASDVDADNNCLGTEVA
# UniProt Q96I15: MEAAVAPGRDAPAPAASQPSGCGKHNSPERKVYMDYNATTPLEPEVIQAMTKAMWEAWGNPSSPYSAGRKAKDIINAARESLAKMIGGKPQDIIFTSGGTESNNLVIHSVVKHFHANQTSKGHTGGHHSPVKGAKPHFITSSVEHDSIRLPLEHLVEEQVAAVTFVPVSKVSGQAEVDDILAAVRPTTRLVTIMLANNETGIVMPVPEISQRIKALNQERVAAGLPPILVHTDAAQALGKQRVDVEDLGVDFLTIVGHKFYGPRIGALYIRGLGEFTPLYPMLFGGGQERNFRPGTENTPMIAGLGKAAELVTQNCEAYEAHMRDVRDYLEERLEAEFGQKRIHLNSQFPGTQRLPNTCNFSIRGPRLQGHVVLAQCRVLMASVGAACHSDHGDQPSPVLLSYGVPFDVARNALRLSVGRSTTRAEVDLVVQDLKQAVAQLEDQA
# UniProt Q9UHR5: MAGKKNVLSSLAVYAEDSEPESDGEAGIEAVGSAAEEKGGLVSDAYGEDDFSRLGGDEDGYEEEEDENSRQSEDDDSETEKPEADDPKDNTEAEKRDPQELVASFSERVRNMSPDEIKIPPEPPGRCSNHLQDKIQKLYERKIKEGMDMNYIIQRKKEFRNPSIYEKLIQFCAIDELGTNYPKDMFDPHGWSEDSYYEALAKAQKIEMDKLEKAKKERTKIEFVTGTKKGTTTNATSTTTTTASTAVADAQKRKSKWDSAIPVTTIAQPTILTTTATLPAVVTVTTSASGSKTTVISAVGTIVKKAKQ
# This is one part of the list.
# Compound: CC1Cc2ccccc2N1C(=O)C1CCCN(C1)C(=O)CCl (mixture of isomers) [TRIM25 ligand 11 (diastereomer mixture)]
# Test: probe-labelled cysteine peptide fold change vs DMSO (competition) (log2 fold change); higher = less target engagement (more negative = stronger competition)
# Details: THP-1, incubation time: 4 h
# 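Also: competitive chemoproteomic profiling in live THP-1 cells with an iodoacetamide desthiobiotin (IA-DTB) probe, comparing probe-labelled peptide intensities in compound-treated cells against DMSO-treated controls.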
target,measurement,setting,value
SCAF8_Q9UPN6_1170_DDRDFDFCR (UniProt Q9UPN6),probe-labelled cysteine peptide fold change,10 µM,-0.0203
same,probe-labelled cysteine peptide fold change,50 µM,-0.456
SEC16A_O15027_1797_TEAYEYAQSLGAETCPLPSFQVFK (UniProt O15027),probe-labelled cysteine peptide fold change,10 µM,0.089
same,probe-labelled cysteine peptide fold change,50 µM,-0.114
SCYL1_Q96KG9_88_CLHVVTEAVTPLGIYLK (UniProt Q96KG9),probe-labelled cysteine peptide fold change,10 µM,0.108
same,probe-labelled cysteine peptide fold change,50 µM,0.0942
SCYL1_Q96KG9_451_CNTTVCLGK (UniProt Q96KG9),probe-labelled cysteine peptide fold change,10 µM,-0.0956
same,probe-labelled cysteine peptide fold change,50 µM,-0.0711
SCAPER_Q9BY12_71_QSTAVDCK (UniProt Q9BY12),probe-labelled cysteine peptide fold change,10 µM,-0.104
same,probe-labelled cysteine peptide fold change,50 µM,-0.189
SELENOO_Q9BVL4_629_LLETPYHCEAGAATDAEATEADGADGR (UniProt Q9BVL4),probe-labelled cysteine peptide fold change,10 µM,-0.074
same,probe-labelled cysteine peptide fold change,50 µM,-0.08
SBNO1_A3KN83_605_YLCIASK (UniProt A3KN83),probe-labelled cysteine peptide fold change,10 µM,-0.147
same,probe-labelled cysteine peptide fold change,50 µM,0.204
SATB1_Q01826_91_KGTMLPVFCVVEHYENAIEYDCKEEHAEFVLVR (UniProt Q01826),probe-labelled cysteine peptide fold change,10 µM,0.163
same,probe-labelled cysteine peptide fold change,50 µM,0.111
SEC23B_Q15437_61_ERPDLPPVQYEPVLCSR (UniProt Q15437),probe-labelled cysteine peptide fold change,10 µM,0.0697
same,probe-labelled cysteine peptide fold change,50 µM,0.119
SDF2L1_Q9HCN8_149_CSGQHWER (UniProt Q9HCN8),probe-labelled cysteine peptide fold change,10 µM,0.0167
same,probe-labelled cysteine peptide fold change,50 µM,-0.155
SAP18_O00422_26_TCPLLLR (UniProt O00422),probe-labelled cysteine peptide fold change,10 µM,-0.165
same,probe-labelled cysteine peptide fold change,50 µM,-0.0452
SEC24D_O94855_431_RLDHYEKPELSLGSYEYVATLDYCR (UniProt O94855),probe-labelled cysteine peptide fold change,10 µM,0.0353
same,probe-labelled cysteine peptide fold change,50 µM,0.11
SEC22A_Q96IW7_33_VRDGLPLSASTDYEQSTGMQECR (UniProt Q96IW7),probe-labelled cysteine peptide fold change,10 µM,-0.0539
same,probe-labelled cysteine peptide fold change,50 µM,-0.102
SEC24D_O94855_1021_GLYGGSSYVDFLCCVHK (UniProt O94855),probe-labelled cysteine peptide fold change,10 µM,0.0192
same,probe-labelled cysteine peptide fold change,50 µM,0.0317
SDHA_P31040_89_AAFGLSEAGFNTACVTK (UniProt P31040),probe-labelled cysteine peptide fold change,10 µM,-0.0242
same,probe-labelled cysteine peptide fold change,50 µM,-0.0133
SEC23B_Q15437_180_MVQVHELSCEGISK (UniProt Q15437),probe-labelled cysteine peptide fold change,10 µM,0.14
same,probe-labelled cysteine peptide fold change,50 µM,0.106
SART3_Q15020_537_AVQCTSDYPEHVCEVLLTMER (UniProt Q15020),probe-labelled cysteine peptide fold change,10 µM,0.135
same,probe-labelled cysteine peptide fold change,50 µM,-0.211
SEC61A1_P61619_13_FLEVIKPFCVILPEIQKPER (UniProt P61619),probe-labelled cysteine peptide fold change,10 µM,-0.104
same,probe-labelled cysteine peptide fold change,50 µM,-0.189
SEMA4A_Q9H3S1_547_GNPEWACASGPMSR (UniProt Q9H3S1),probe-labelled cysteine peptide fold change,10 µM,-0.0856
same,probe-labelled cysteine peptide fold change,50 µM,0.0126
SCAF11_Q99590_446_EHQPDVDSSNICTVQTHVENQSANCLK (UniProt Q99590),probe-labelled cysteine peptide fold change,10 µM,-0.00925
same,probe-labelled cysteine peptide fold change,50 µM,-0.237
SBF1_O95248_601_CLAQELHLHVQQNR (UniProt O95248),probe-labelled cysteine peptide fold change,10 µM,0.05
same,probe-labelled cysteine peptide fold change,50 µM,0.0832
SBNO2_Q9Y2G9_908_ALHCVLTTILSQTENK (UniProt Q9Y2G9),probe-labelled cysteine peptide fold change,10 µM,0.0964
same,probe-labelled cysteine peptide fold change,50 µM,0.236
SART3_Q15020_182_DYICPNIWLEYGQYSVGGIGQK (UniProt Q15020),probe-labelled cysteine peptide fold change,10 µM,0.0675
same,probe-labelled cysteine peptide fold change,50 µM,0.102
SEC24B_O95487_562_CTLTNIPQTQALLNK (UniProt O95487),probe-labelled cysteine peptide fold change,10 µM,0.0185
same,probe-labelled cysteine peptide fold change,50 µM,0.218
SEC24D_O94855_780_SCETDALINFFAK (UniProt O94855),probe-labelled cysteine peptide fold change,10 µM,0.00338
same,probe-labelled cysteine peptide fold change,50 µM,0.0401
SEC23A_Q15436_61_ERPDLPPIQYEPVLCSR (UniProt Q15436),probe-labelled cysteine peptide fold change,10 µM,-0.174
same,probe-labelled cysteine peptide fold change,50 µM,-0.102
SCLY_Q96I15_316_AAELVTQNCEAYEAHMR (UniProt Q96I15),probe-labelled cysteine peptide fold change,10 µM,0.148
same,probe-labelled cysteine peptide fold change,50 µM,0.181
SATB1_Q01826_91_GTMLPVFCVVEHYENAIEYDCKEEHAEFVLVRK (UniProt Q01826),probe-labelled cysteine peptide fold change,10 µM,-0.0244
same,probe-labelled cysteine peptide fold change,50 µM,-0.241
SART1_O43290_645_GLAAALLLCQNK (UniProt O43290),probe-labelled cysteine peptide fold change,10 µM,-0.145
same,probe-labelled cysteine peptide fold change,50 µM,-0.179
SCAI_Q8N9R8_415_EMHCLHPGDLYPFTR (UniProt Q8N9R8),probe-labelled cysteine peptide fold change,10 µM,-0.441
same,probe-labelled cysteine peptide fold change,50 µM,-0.132
SAP30BP_Q9UHR5_127_CSNHLQDK (UniProt Q9UHR5),probe-labelled cysteine peptide fold change,10 µM,-0.0333
same,probe-labelled cysteine peptide fold change,50 µM,-0.337
SEC24C_P53992_809+816_HDDRLNEESGALLQCALLYTSCAGQR (UniProt P53992),probe-labelled cysteine peptide fold change,10 µM,0.255
same,probe-labelled cysteine peptide fold change,50 µM,-0.0483
SEC24D_O94855_431_LDHYEKPELSLGSYEYVATLDYCR (UniProt O94855),probe-labelled cysteine peptide fold change,10 µM,0.264
same,probe-labelled cysteine peptide fold change,50 µM,0.154
SEC13_P55735_153_KINNAHTIGCNAVSWAPAVVPGSLIDHPSGQKPNYIK (UniProt P55735),probe-labelled cysteine peptide fold change,10 µM,0.0248
same,probe-labelled cysteine peptide fold change,50 µM,-0.301
SEC24D_O94855_853_NCVLLSRPEISTDER (UniProt O94855),probe-labelled cysteine peptide fold change,10 µM,0.108
same,probe-labelled cysteine peptide fold change,50 µM,0.0493
SEC24D_O94855_371_AYMCPFMQFIEGGR (UniProt O94855),probe-labelled cysteine peptide fold change,10 µM,-0.0221
same,probe-labelled cysteine peptide fold change,50 µM,-0.184
SAR1B_Q9Y6B6_178_ELNARPLEVFMCSVLKR (UniProt Q9Y6B6),probe-labelled cysteine peptide fold change,10 µM,-0.462
same,probe-labelled cysteine peptide fold change,50 µM,-0.351

# Another view of some results above:
target | measurement | setting | value
SCAPER_Q9BY12_71_QSTAVDCK (UniProt Q9BY12) | probe-labelled cysteine peptide fold change | 10 µM | -0.104
SEC23B_Q15437_180_MVQVHELSCEGISK (UniProt Q15437) | probe-labelled cysteine peptide fold change | 50 µM | 0.106
SART3_Q15020_537_AVQCTSDYPEHVCEVLLTMER (UniProt Q15020) | probe-labelled cysteine peptide fold change | 10 µM | 0.135

# A portion from the list above, for reference:
target,measurement,setting,value
SCYL1_Q96KG9_451_CNTTVCLGK (UniProt Q96KG9),probe-labelled cysteine peptide fold change,10 µM,-0.0956
same,probe-labelled cysteine peptide fold change,50 µM,-0.0711
